Test results reported in patent publication US20110281804A1, “PEPTIDIC AND PEPTIDOMIMETIC COMPOUNDS FOR REGULATING AUTOPHAGY” (FONDAZIONE SANTA LUCIA, priority 2008, published 2011).
No constants are given. Whether binding was seen depends on the method and setting. For part of these data: Binding seen in cells or lysates may run through a third protein. Some results given as binding are weak or reduced against the parent protein; the word gives no strength.

Protein sequences, listed by entry. Tags and fused reporters are not part of them. Lines headed by an entry give the natural chain unless they say otherwise; changes in a name come on top. Chains listed by the source or under a name are the forms on record and can include a tag or linker.
AMBRA1 full length (human, wild type) (Q9C0C7, form named): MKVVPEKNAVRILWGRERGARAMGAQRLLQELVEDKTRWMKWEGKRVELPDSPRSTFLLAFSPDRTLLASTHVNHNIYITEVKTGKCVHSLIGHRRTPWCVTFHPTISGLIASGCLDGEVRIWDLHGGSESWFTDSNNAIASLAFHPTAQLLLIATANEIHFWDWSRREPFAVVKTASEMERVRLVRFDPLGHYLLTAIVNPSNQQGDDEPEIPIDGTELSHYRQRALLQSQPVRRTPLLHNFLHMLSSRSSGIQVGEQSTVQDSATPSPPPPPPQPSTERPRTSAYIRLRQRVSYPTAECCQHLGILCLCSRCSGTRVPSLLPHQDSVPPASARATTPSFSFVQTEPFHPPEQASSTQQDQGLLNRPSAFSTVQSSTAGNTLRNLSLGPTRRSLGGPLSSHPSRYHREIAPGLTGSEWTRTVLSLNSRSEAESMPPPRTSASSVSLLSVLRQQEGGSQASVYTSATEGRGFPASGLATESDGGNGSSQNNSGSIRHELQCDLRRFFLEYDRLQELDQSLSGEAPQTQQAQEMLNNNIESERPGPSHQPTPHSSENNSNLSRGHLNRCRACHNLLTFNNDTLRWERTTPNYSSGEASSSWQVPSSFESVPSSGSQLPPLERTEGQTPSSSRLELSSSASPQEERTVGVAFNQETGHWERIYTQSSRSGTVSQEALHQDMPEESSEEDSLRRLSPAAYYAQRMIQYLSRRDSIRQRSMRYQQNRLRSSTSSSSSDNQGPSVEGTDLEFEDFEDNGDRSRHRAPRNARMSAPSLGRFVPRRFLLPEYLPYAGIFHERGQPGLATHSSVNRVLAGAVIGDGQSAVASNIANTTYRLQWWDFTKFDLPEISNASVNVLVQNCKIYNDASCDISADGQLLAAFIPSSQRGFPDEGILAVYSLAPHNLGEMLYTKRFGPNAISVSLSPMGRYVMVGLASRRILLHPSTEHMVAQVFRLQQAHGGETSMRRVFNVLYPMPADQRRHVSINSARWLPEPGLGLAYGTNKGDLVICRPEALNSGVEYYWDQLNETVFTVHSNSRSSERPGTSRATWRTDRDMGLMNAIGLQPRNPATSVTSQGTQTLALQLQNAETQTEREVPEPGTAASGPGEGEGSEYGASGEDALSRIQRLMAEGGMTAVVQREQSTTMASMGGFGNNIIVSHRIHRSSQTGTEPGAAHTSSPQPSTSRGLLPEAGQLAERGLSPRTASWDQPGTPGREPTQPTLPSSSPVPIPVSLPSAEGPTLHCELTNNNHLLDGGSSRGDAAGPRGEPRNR
UniProt Q14457: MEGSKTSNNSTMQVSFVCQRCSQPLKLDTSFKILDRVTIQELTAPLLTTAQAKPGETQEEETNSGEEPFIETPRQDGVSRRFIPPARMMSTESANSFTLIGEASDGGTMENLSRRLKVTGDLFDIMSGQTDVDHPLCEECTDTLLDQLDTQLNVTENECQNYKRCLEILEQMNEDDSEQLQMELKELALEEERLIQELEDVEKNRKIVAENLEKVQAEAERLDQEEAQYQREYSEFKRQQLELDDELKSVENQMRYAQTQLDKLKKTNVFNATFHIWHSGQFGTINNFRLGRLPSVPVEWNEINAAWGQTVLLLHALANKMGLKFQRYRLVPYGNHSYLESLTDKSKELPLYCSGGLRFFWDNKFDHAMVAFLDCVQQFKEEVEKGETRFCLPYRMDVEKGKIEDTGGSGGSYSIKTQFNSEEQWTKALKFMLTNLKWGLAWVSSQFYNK
UniProt P63168: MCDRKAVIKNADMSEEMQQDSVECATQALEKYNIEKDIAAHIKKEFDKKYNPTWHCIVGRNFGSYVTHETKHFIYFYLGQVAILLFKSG

Columns and labels:
[1] = target: AMBRA1 full length (human, wild type) (UniProt Q9C0C7); test: co-immunoprecipitation (IP FLAG-BECLIN 1, WB AMBRA1) from 2F cells
[2] = target: T1, Ambra1 (mouse, endogenous) (mouse) (UniProt A2AH22); test: legend of FIG. 1b: IP Ambra1, WB Dlc1, E14.5 embryos
T1 sequence (looked up): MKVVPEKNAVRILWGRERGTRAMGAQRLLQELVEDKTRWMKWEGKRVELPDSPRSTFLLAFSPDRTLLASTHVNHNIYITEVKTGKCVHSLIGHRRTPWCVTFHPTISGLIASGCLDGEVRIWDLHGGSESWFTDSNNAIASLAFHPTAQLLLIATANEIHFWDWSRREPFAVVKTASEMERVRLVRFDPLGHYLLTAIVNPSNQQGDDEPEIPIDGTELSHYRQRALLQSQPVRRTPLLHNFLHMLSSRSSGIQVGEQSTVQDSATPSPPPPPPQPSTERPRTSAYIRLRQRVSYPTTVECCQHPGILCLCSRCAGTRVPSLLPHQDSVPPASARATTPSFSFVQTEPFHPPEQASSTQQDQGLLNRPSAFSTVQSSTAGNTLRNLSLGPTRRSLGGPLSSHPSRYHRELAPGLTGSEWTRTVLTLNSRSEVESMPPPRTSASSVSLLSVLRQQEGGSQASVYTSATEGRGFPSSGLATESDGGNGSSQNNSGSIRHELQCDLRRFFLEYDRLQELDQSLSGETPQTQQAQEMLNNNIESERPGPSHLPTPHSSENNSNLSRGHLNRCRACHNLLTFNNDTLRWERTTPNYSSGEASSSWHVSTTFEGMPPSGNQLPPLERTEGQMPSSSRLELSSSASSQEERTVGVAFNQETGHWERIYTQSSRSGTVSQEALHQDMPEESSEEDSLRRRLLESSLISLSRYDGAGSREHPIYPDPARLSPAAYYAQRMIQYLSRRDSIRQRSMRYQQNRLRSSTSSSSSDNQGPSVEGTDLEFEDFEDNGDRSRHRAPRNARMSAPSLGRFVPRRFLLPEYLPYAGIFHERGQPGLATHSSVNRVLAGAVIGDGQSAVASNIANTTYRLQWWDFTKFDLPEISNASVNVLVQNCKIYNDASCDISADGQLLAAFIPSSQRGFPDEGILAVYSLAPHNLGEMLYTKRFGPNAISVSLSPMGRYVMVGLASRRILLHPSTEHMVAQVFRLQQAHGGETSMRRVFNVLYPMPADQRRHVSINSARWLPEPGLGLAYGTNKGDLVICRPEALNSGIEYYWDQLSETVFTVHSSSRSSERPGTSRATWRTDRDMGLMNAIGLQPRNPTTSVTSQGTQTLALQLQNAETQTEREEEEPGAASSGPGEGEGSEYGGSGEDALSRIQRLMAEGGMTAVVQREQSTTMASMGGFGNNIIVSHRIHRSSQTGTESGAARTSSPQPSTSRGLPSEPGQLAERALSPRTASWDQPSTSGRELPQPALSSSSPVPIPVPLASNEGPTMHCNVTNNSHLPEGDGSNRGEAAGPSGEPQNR

[3] = target: T1, Ambra1 (mouse, endogenous) (mouse); test: co-immunoprecipitation (IP Ambra1, WB Dlc1) from mouse E14.5 embryo extracts

Row | binding [1] | binding [2] | binding [3] | Substance
1 | binds | – | – | BECLIN 1 (from UniProt Q14457 1-450)
2 | – | binds | binds | Dlc1 (mouse, endogenous) (from UniProt P63168 1-89)
